Test results published in the supplement of paper PMC10849652.
Some of the results follow.

Sequences of proteins named here, by UniProt entry; tags and fusion partners are left off. A change or cut given only in a name is not applied to a line headed by its entry.
UniProt Q9H1N7: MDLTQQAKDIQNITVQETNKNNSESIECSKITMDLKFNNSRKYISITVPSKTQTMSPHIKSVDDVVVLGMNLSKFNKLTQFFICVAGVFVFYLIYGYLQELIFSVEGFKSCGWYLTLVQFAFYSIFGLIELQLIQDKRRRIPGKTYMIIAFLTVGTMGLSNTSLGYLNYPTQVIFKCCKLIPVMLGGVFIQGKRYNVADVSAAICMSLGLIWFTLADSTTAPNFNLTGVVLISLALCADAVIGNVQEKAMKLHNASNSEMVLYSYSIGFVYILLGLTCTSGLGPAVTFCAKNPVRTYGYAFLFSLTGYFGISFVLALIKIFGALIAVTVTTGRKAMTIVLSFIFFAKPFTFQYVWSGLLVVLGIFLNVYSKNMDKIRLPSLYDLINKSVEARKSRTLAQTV
UniProt Q02978: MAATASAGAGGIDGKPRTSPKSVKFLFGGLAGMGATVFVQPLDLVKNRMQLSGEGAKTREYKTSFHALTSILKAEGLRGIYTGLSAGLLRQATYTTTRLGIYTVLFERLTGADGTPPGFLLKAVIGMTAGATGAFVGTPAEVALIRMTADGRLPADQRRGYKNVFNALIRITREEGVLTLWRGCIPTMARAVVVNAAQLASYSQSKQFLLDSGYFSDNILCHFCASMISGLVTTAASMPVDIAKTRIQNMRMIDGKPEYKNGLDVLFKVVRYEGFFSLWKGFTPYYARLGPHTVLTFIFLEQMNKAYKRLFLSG
UniProt Q9NQQ7: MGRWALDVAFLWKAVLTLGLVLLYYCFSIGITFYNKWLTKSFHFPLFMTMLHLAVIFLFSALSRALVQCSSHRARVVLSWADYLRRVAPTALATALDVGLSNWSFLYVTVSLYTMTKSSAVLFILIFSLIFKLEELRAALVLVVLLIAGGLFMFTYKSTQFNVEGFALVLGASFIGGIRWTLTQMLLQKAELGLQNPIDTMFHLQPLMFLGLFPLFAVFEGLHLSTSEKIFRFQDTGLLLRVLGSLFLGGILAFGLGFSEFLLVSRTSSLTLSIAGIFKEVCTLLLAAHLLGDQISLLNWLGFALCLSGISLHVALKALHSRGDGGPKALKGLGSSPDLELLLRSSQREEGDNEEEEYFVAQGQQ
UniProt Q9Y6M5: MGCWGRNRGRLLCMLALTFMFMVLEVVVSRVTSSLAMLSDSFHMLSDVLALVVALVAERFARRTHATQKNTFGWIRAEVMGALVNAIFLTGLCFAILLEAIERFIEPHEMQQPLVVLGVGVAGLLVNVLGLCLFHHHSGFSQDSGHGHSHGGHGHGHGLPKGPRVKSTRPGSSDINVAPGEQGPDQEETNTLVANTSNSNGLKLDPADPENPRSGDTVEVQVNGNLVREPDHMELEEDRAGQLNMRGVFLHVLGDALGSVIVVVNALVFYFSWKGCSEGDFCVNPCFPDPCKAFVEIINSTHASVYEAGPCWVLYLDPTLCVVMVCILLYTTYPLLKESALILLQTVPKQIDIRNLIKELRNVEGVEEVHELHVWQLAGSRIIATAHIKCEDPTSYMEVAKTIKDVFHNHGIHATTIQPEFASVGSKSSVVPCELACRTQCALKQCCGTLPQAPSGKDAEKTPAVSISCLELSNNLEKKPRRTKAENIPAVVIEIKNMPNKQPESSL
UniProt Q13485: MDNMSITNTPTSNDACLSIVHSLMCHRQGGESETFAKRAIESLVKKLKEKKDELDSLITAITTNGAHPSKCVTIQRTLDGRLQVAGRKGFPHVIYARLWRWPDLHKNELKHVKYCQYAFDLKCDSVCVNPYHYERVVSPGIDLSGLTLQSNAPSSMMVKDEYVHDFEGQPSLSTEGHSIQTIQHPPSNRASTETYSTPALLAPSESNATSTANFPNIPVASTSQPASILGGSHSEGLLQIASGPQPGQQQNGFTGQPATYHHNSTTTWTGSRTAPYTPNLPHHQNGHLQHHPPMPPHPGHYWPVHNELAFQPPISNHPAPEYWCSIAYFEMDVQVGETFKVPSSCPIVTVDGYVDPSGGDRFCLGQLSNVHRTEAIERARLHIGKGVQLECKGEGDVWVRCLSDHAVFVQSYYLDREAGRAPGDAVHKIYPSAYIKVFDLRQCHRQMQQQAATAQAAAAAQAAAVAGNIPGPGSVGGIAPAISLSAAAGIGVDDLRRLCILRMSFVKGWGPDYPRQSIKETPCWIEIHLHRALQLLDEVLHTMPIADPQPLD
UniProt O14745: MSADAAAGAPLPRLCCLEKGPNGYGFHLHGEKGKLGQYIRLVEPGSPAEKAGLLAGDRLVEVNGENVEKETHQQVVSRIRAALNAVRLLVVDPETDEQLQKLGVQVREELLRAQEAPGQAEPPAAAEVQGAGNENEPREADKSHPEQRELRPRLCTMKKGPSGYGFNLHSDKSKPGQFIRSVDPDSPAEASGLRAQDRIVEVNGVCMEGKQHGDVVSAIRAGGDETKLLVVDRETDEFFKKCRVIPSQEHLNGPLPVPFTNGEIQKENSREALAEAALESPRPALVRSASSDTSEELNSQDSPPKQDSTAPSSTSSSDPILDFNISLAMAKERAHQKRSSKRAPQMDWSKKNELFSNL
UniProt Q99808: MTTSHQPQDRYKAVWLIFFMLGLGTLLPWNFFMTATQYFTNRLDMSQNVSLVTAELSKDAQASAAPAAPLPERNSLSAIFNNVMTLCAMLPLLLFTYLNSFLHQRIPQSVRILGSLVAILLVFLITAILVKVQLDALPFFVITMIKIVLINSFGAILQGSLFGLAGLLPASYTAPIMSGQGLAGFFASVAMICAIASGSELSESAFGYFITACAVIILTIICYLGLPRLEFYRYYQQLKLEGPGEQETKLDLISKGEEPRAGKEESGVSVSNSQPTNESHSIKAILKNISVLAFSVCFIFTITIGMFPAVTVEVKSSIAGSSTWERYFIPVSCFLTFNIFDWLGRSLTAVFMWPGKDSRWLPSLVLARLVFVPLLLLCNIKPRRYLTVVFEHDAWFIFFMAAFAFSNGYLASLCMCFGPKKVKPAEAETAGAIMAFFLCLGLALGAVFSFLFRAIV
UniProt O76082: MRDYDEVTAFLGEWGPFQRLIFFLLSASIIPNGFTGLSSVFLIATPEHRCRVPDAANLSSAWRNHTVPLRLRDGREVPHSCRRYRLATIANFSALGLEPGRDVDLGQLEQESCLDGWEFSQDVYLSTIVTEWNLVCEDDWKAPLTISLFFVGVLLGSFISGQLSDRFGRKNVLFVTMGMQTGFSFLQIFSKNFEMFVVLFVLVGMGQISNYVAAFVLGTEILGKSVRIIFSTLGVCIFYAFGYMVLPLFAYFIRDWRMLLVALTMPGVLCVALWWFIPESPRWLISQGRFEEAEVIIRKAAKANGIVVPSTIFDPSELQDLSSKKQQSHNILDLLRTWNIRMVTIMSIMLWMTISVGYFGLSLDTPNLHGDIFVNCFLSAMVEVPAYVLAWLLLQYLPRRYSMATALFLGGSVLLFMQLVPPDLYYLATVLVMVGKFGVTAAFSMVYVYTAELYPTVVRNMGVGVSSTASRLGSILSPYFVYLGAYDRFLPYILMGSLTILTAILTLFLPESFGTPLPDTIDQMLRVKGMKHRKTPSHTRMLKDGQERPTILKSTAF
UniProt P05141: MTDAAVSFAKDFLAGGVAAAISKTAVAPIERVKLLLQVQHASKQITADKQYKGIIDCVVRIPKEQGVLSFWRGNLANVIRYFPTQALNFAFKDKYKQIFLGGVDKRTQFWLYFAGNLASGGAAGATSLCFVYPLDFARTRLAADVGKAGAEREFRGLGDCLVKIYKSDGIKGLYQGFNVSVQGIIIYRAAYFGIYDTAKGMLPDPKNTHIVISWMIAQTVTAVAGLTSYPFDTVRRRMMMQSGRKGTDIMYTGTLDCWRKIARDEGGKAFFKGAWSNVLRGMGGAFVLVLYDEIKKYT
UniProt Q8NEW0: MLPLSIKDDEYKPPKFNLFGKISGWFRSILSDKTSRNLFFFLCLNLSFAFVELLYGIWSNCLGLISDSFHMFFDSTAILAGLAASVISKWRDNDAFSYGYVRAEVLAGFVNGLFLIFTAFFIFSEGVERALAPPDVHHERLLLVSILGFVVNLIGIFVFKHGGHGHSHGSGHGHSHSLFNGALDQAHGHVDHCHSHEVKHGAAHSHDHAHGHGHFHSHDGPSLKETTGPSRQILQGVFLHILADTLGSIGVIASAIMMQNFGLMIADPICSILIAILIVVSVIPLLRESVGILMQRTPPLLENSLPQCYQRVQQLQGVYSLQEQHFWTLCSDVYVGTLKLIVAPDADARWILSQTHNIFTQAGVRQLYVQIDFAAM
UniProt P14672: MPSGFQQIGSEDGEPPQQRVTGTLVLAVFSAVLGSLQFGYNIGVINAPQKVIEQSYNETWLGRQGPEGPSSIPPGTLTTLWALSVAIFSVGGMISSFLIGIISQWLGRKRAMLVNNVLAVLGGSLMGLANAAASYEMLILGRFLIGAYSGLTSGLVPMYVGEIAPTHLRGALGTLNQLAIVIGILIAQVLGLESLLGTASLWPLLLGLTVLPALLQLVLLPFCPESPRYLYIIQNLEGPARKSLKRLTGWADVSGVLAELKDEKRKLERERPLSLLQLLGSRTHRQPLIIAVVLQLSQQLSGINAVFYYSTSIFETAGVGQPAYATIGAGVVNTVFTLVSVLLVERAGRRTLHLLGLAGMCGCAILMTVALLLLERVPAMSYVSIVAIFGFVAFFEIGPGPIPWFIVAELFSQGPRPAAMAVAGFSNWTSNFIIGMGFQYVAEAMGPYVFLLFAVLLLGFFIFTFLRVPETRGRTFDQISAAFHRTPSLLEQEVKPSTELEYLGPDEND
UniProt Q92504: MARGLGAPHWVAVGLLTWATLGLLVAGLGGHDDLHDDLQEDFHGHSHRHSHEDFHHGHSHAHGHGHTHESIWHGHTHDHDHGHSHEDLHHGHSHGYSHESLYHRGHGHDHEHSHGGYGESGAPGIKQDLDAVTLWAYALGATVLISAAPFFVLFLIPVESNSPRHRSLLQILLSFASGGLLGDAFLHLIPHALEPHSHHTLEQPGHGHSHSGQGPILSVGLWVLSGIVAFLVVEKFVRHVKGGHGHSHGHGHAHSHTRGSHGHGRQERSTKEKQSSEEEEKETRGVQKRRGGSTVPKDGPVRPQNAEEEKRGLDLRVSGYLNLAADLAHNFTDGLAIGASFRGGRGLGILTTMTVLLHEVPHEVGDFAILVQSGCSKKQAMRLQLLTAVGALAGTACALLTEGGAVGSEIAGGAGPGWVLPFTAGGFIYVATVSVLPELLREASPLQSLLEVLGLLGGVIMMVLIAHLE
UniProt Q96H78: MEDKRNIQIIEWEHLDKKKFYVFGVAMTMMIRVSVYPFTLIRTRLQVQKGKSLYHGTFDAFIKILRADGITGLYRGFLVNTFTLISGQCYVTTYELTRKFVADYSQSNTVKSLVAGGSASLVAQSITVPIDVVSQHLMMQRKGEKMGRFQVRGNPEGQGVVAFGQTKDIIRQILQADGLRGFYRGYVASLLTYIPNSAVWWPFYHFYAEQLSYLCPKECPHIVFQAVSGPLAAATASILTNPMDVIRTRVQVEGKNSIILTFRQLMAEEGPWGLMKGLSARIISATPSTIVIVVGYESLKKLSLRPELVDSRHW
UniProt F5GZS6: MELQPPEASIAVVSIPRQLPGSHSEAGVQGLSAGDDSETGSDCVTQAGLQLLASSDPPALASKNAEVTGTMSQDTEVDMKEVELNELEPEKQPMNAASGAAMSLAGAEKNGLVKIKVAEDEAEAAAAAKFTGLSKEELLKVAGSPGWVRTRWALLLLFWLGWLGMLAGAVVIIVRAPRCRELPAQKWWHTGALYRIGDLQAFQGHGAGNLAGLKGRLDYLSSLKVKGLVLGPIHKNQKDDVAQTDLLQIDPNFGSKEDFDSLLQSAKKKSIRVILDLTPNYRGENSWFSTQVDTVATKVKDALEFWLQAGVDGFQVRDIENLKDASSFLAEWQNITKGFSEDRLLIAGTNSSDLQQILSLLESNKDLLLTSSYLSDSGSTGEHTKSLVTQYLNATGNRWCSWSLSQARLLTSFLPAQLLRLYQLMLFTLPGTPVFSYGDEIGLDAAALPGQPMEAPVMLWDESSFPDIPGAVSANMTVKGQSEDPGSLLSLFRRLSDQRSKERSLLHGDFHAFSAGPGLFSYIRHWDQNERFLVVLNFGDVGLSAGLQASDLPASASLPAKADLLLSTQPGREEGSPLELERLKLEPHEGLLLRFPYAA
UniProt Q96A29: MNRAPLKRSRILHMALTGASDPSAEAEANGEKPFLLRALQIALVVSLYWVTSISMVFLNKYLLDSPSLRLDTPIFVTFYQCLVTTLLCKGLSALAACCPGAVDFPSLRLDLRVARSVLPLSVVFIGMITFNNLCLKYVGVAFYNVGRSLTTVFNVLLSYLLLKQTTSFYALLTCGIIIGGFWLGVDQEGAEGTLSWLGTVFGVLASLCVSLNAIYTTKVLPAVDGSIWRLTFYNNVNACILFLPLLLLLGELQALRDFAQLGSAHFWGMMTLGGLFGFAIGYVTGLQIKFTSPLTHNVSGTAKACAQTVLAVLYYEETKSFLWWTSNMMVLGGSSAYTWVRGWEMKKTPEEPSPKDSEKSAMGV

Assays:
Experiment in all cases: log2 fold change, soluble protein after heating vs DMSO (PISA); higher = thermal stabilisation; K562 lysate, 10 uM; active = over 0.2 and 3.5 SD of the protein, either way, in both replicates (recomputed)
[1] = compound: C=CC(=O)N1CCC[C@@H](n2nc(-c3ccc(Oc4ccccc4)cc3)c3c(N)ncnc32)C1 [ibrutinib]
Summary of the method: (§1)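 Quantification was by TMTpro 16plex LC-MS/MS with equalised channel sums, applied to the supernatant after 21,000xg for 90 min. Samples were crude K562 extract at 1 mg/mL protein in PBS pH 7.4 with 1 mM MgCl2, treated with 10 μM compound for 30 min, heated for 3 min across 48°C-58°C, pooled and brought to 0.5% NP-40 at 4°C. Values are log-two fold changes in thermal stability relative to solvent controls, from duplicates.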

[2] = compound: CC(=O)c1cnc2ccc(-c3cc(Cl)c(O)c(Cl)c3)nc2c1N[C@H]1CC[C@H](CN(C)C)CC1
Summary of the method: as §1

[3] = compound: CC(C)(C)Cn1c(N)nc2ccc(-c3[nH]c(C(C)(C)C)nc3-c3ccc(F)cc3)nc21 [ralimetinib]
Summary of the method: as §1

[4] = compound: CC(C)(O)CC(=O)NCCn1ccc2ncnc(Nc3ccc(Oc4cccc(C(F)(F)F)c4)c(Cl)c3)c21
Summary of the method: as §1

[5] = compound: CC(C)C1=C2N=C(C=C(N2N=C1)NCC3=CC=CC=C3)NCCCCCCN
Summary of the method: as §1

[6] = compound: CC1=C(C(CC(=O)N1)C2=CC=C(C=C2)C(F)(F)F)C(=O)NC3=C(C=C4C(=C3)C=NN4)F
Summary of the method: as §1

[7] = compound: CC1=C(C2=C(C=C1)C(=O)C3=CC=CC=C3N2CCCN)C
Summary of the method: as §1

[8] = compound: CC1=C(C=C(C=C1)NC(=O)C2=CC(=CC=C2)C(C)(C)C#N)NC3=CC4=C(C=C3)N=CN(C4=O)C
Summary of the method: as §1

[9] = compound: CC1=C(C=C(C=C1)NC(=O)C2=CC(=CC=C2)N(C)C)NC(=O)C3=CC=C(C=C3)O
Summary of the method: as §1

[10] = compound: CC1=CC=C(C=C1)SC2=C3C=C(SC3=CN=C2)C(=O)N
Summary of the method: as §1

Measured: log2 fold change

SLC33A1 (UniProt O00400)
inactive: [1] 0.047 | [2] -0.008 | [3] 0.024 | [4] -0.066 | [5] -0.014 | [6] -0.021 | [7] 0.051 | [8] -0.007 | [9] -0.014 | [10] -0.002

SLC6A8 (UniProt P48029)
inactive: [1] 0.05 | [2] 0.022 | [3] 0 | [4] -0.004 | [5] -0.018 | [6] -0.037 | [7] -0.007 | [8] -0.032 | [9] 0.239 | [10] -0.03

SLC35B3 (UniProt Q9H1N7)
inactive: [1] 0.027 | [2] -0.036 | [3] 0.048 | [4] -0.115 | [5] -0.017 | [6] -0.059 | [7] -0.011 | [8] 0.104 | [9] 0.02 | [10] 0.007

SLC5A3 (UniProt P53794)
inactive: [1] -0.047 | [2] -0.023 | [3] 0 | [4] -0.096 | [5] 0.056 | [6] -0.027 | [7] -0.012 | [8] 0.038 | [9] -0.04 | [10] -0.021

SLC6A9 isoform 2 (UniProt P48067)
inactive: [1] -0.01 | [2] 0.012 | [3] 0.006 | [4] -0.074 | [5] 0.054 | [6] 0.006 | [7] -0.017 | [8] 0 | [9] 0.045 | [10] -0.002

SLC25A11 (UniProt Q02978)
inactive: [1] 0.011 | [2] -0.02 | [3] 0.036 | [4] -0.019 | [5] -0.022 | [6] 0.007 | [7] -0.028 | [8] 0.022 | [9] -0.002 | [10] 0.01

SLC35C2 isoform 3 (UniProt Q9NQQ7)
inactive: [1] -0.08 | [2] -0.184 | [3] -0.098 | [4] -0.02 | [5] -0.152 | [6] -0.085 | [7] 0.046 | [8] 0.033 | [9] -0.103 | [10] 0.036

SLC7A5 (UniProt Q01650)
inactive: [1] -0.011 | [2] -0.01 | [3] 0.018 | [4] -0.042 | [5] 0.036 | [6] -0.031 | [7] -0.003 | [8] 0.075 | [9] -0.043 | [10] 0

SLC30A1 (UniProt Q9Y6M5)
inactive: [1] 0.001 | [2] -0.012 | [3] 0.014 | [4] -0.063 | [5] -0.069 | [6] 0.004 | [7] 0.001 | [8] 0.049 | [9] -0.012 | [10] -0.004

SLC38A5 (UniProt Q8WUX1)
inactive: [1] -0.016 | [2] 0.014 | [3] -0.001 | [4] -0.055 | [5] -0.016 | [6] 0.002 | [7] 0.021 | [8] 0.075 | [9] 0.017 | [10] -0.02

SMAD4 (UniProt Q13485)
inactive: [1] 0.028 | [2] 0.002 | [3] 0.017 | [4] -0.037 | [5] -0.007 | [6] -0.031 | [7] 0.019 | [8] 0 | [9] -0.022 | [10] -0.068

SLC25A31 (UniProt Q9H0C2)
inactive: [1] -0.017 | [2] -0.01 | [3] -0.001 | [4] -0.027 | [5] 0.035 | [6] 0.02 | [7] -0.001 | [8] -0.016 | [9] 0.016 | [10] 0.043

Reprinted from the results shown (2 entries):
SMAD4 (UniProt Q13485)
inactive: [1] 0.028 | [2] 0.002 | [3] 0.017 | [4] -0.037 | [5] -0.007 | [6] -0.031 | [7] 0.019 | [8] 0 | [9] -0.022 | [10] -0.068

SLC25A31 (UniProt Q9H0C2)
inactive: [1] -0.017 | [2] -0.01 | [3] -0.001 | [4] -0.027 | [5] 0.035 | [6] 0.02 | [7] -0.001 | [8] -0.016 | [9] 0.016 | [10] 0.043

Following part:

SLC6A6 (UniProt P31641)
inactive: [1] 0.015 | [2] -0.014 | [3] 0.011 | [4] -0.139 | [5] -0.036 | [6] 0.024 | [7] 0.066 | [8] 0 | [9] -0.022 | [10] -0.022

SLC9A3R1 (UniProt O14745)
inactive: [1] -0.008 | [2] -0.006 | [3] 0.009 | [4] -0.024 | [5] -0.017 | [6] -0.018 | [7] 0.023 | [8] -0.005 | [9] -0.016 | [10] -0.007

SLC29A1 isoform 2 (UniProt Q99808)
inactive: [1] -0.013 | [2] -0.045 | [3] 0.077 | [4] -0.041 | [5] -0.012 | [6] 0.001 | [7] 0 | [8] 0.046 | [9] -0.02 | [10] -0.017

SLC37A4 isoform 2 (UniProt O43826)
inactive: [1] 0.022 | [2] -0.01 | [3] 0.101 | [4] 0.02 | [5] 0.081 | [6] -0.014 | [7] -0.054 | [8] 0.051 | [9] -0.061 | [10] -0.004

SLC25A6 (UniProt P12236)
inactive: [1] -0.029 | [2] -0.015 | [3] 0.03 | [4] -0.003 | [5] 0.031 | [6] 0.007 | [7] -0.001 | [8] 0.01 | [9] -0.007 | [10] 0.035

SLC22A5 isoform 3 (UniProt O76082)
inactive: [1] 0.016 | [2] -0.01 | [3] -0.282 | [4] 0.132 | [5] 0.091 | [7] -0.054 | [8] 0.068 | [9] -0.259 | [10] 0.025

SMARCA2 (UniProt P51531)
inactive: [1] 0.005 | [2] -0.006 | [3] 0.031 | [4] -0.011 | [5] 0.036 | [6] 0.016 | [7] -0.044 | [8] -0.015 | [9] 0.012 | [10] 0.013

SLC25A5 (UniProt P05141)
inactive: [1] -0.067 | [2] -0.013 | [3] -0.006 | [4] 0.029 | [5] -0.005 | [6] 0.001 | [7] -0.04 | [8] -0.001 | [9] 0.016 | [10] 0.034

SLC30A7 (UniProt Q8NEW0)
inactive: [1] -0.106 | [2] 0.018 | [3] -0.049 | [4] -0.012 | [6] 0.397 | [7] 0.028 | [8] 0.088 | [9] 0.009 | [10] -0.051

SLC2A4 (UniProt P14672)
inactive: [1] -0.077 | [2] -0.043 | [3] -0.018 | [4] 0.077 | [5] -0.182 | [7] -0.03 | [8] -0.074 | [9] 0.126 | [10] -0.01

SLC39A7 (UniProt Q92504)
inactive: [1] 0.022 | [2] -0.039 | [3] 0.046 | [4] -0.086 | [5] 0.034 | [6] -0.009 | [8] 0.031 | [9] -0.006 | [10] -0.052

SLC25A44 (UniProt Q96H78)
inactive: [1] -0.006 | [2] 0.002 | [3] 0.065 | [4] -0.322 | [5] -0.031 | [7] -0.017 | [8] 0.038 | [9] -0.118 | [10] 0.002

SLC3A2 (UniProt F5GZS6)
inactive: [1] -0.111 | [2] 0.089 | [3] 0.014 | [4] -0.158 | [5] 0.079 | [6] -0.115 | [7] -0.067 | [9] 0.155 | [10] -0.107

SLC25A46 (UniProt Q96AG3)
inactive: [1] 0.078 | [2] -0.025 | [3] 0.009 | [4] -0.058 | [5] -0.018 | [6] -0.033 | [7] 0.026 | [8] 0.014 | [9] -0.019 | [10] -0.065

SLC25A13 isoform 2 (UniProt Q9UJS0)
inactive: [1] 0.017 | [2] -0.006 | [3] -0.012 | [4] -0.02 | [5] -0.014 | [6] -0.006 | [7] 0.007 | [8] 0.01 | [9] 0.012 | [10] 0.035

SLC35C1 (UniProt Q96A29)
inactive: [1] -0.033 | [2] 0 | [3] -0.01 | [4] 0.288 | [5] -0.172 | [6] -0.031 | [8] -0.06 | [9] 0.235 | [10] 0.061
